Assay: general procedure: solution-phase peptide synthesis; DCC/HOBT
Settings: coupling step

Row | Substance | step yield
1 | Boc.Asp(cHex)-Leu-Val-Glu(cHex)-Ala.OBu^t | 85%
2 | Boc.Ser(Bzl)-Asp(cHex)-Leu-Val-Glu(cHex)-Ala-Leu-Tyr(Bzl)-Leu-Val-Cys(Dpm)- Gly-Glu(Bzl)-Arg(NO2)-Gly-Phe-Phe-Tyr(Bzl)-Thr-Pro-Lys(Z)-Thr(Bzl).OBzl | 88%
3 | Boc.Ser(Bzl)-Asp(cHex)-Leu-Val-Glu(cHex)-Ala.OH | 90%
4 | Z.Leu-Val-Glu (cHex)-Ala.OBu^t | 88%

Source: patent US4992418A (Mount Sinai School of Medicine, priority 1987, dated 1991)
